# Source: US10017538B2, “Bioactive peptides having insecticide activity” (The United States of America, as represented by the …, priority 2016, dated 2018)
# Test system: PBAN-R
# Test: Phage display screening of library peptides on insect cells expressing PBAN-R
# Format: binding, Solenopsis invicta
# Conditions: after three to four rounds of selection on sf9 cells expressing PBAN-R; sequenced phage colonies
row,Substance,Abundance of phage clones
1,"CERVGSHFC (Synthetically generated peptide) [SEQ ID NO: 5, synthetically generated peptide, loop-constrained by flanking cysteines]",3
2,"CIQQGSHFC (Synthetically generated peptide) [SEQ ID NO: 4, synthetically generated peptide, loop-constrained by flanking cysteines]",3
3,CIVQGSHFC (Synthetically generated peptide) [SEQ ID NO: 10],2
4,"CLKIGSHFC (Synthetically generated peptide) [SEQ ID NO: 3, synthetically generated peptide, loop-constrained by flanking cysteines]",7
5,"CMARYMSAC (Synthetically generated peptide) [SEQ ID NO: 11, synthetically generated peptide, loop-constrained by flanking cysteines]",2
6,"CQKIGSHFC (Synthetically generated peptide) [SEQ ID NO: 2, synthetically generated peptide, loop-constrained by flanking cysteines]",11
7,"CQSINGHFC (Synthetically generated peptide) [SEQ ID NO: 8, synthetically generated peptide, loop-constrained by flanking cysteines]",2
8,"CRGATPMSC (Synthetically generated peptide) [SEQ ID NO: 12, synthetically generated peptide, loop-constrained by flanking cysteines]",2
9,"CVKLGSHFC (Synthetically generated peptide) [SEQ ID NO: 6, synthetically generated peptide, loop-constrained by flanking cysteines]",2
10,"CVKQGTHFC (Synthetically generated peptide) [SEQ ID NO: 9, synthetically generated peptide, loop-constrained by flanking cysteines]",2
11,"ERVGTHF (CERVGTHFC; Synthetically generated peptide) [SEQ ID NO: 20, screened library heptapeptide with flanking cysteine residues]",1
12,"ERVGTHY (CERVGTHYC; Synthetically generated peptide) [SEQ ID NO: 24, screened library heptapeptide with flanking cysteine residues]",1
13,"HSRVSGT (CHSRVSGTC; Synthetically generated peptide) [SEQ ID NO: 21, screened library heptapeptide with flanking cysteine residues]",1
14,"IHIGSHF (CIHIGSHFC; Synthetically generated peptide) [SEQ ID NO: 16, screened library heptapeptide with flanking cysteine residues]",1
15,"IHXGTHF [SEQ ID NO: 22, screened library heptapeptide with flanking cysteine residues]",1
16,"IKIGSHY (CIKIGSHYC; Synthetically generated peptide) [SEQ ID NO: 26, screened library heptapeptide with flanking cysteine residues]",1

row,Substance,Abundance of phage clones
1,"IKVGPHY (CIKVGPHYC; Synthetically generated peptide) [SEQ ID NO: 25, screened library heptapeptide with flanking cysteine residues]",1
2,"IQIGTHF (CIQIGTHFC; Synthetically generated peptide) [SEQ ID NO: 18, screened library heptapeptide with flanking cysteine residues]",1
3,"LPMTKHV (CLPMTKHVC; Synthetically generated peptide) [SEQ ID NO: 30, screened library heptapeptide with flanking cysteine residues]",1
4,"LPWQIHN (CLPWQIHNC; Synthetically generated peptide) [SEQ ID NO: 29, screened library heptapeptide with flanking cysteine residues]",1
5,"NTGGSMA (CNTGGSMAC; Synthetically generated peptide) [SEQ ID NO: 35, screened library heptapeptide with flanking cysteine residues]",1
6,"NTGSPYE (CNTGSPYEC; Synthetically generated peptide) [SEQ ID NO: 36, screened library heptapeptide with flanking cysteine residues]",1
7,"QQTKNYY (CQQTKNYYC; Synthetically generated peptide) [SEQ ID NO: 32, screened library heptapeptide with flanking cysteine residues]",1
8,"QRIGLHY (CQRIGLHYC; Synthetically generated peptide) [SEQ ID NO: 27, screened library heptapeptide with flanking cysteine residues]",1
9,"QSIGTHF (CQSIGTHFC; Synthetically generated peptide) [SEQ ID NO: 19, screened library heptapeptide with flanking cysteine residues]",1
10,"SQLPWYS (CSQLPWYSC; Synthetically generated peptide) [SEQ ID NO: 34, screened library heptapeptide with flanking cysteine residues]",1
11,"TNANHYF (CTNANHYFC; Synthetically generated peptide) [SEQ ID NO: 31, screened library heptapeptide with flanking cysteine residues]",1
12,"TNGDSAR (CTNGDSARC; Synthetically generated peptide) [SEQ ID NO: 33, screened library heptapeptide with flanking cysteine residues]",1
13,"TQIGTHF (CTQIGTHFC; Synthetically generated peptide) [SEQ ID NO: 17, screened library heptapeptide with flanking cysteine residues]",1
14,"TXVGSHF [SEQ ID NO: 15, screened library heptapeptide with flanking cysteine residues]",1
15,"VSRTSHL (CVSRTSHLC; Synthetically generated peptide) [SEQ ID NO: 28, screened library heptapeptide with flanking cysteine residues]",1
16,"YSSPSHF (CYSSPSHFC; Synthetically generated peptide) [SEQ ID NO: 23, screened library heptapeptide with flanking cysteine residues]",1
